Results as given in article PMC6925144, “A prospective compound screening contest identified broader inhibitors for Sirtuin 1” (Scientific Reports, 2019).
Whole data set: some 3,200 compounds, median “TSA(with NAD+) / Primary screening (TSA) / delta Tm (K)” near -0.04, cut for the highest 2% near 0.37. Some of the results follow.

Chains of the proteins cited; added tags and fusions are not shown. Residues count along the entry.
UniProt Q96EB6, 2-747 limits assumed: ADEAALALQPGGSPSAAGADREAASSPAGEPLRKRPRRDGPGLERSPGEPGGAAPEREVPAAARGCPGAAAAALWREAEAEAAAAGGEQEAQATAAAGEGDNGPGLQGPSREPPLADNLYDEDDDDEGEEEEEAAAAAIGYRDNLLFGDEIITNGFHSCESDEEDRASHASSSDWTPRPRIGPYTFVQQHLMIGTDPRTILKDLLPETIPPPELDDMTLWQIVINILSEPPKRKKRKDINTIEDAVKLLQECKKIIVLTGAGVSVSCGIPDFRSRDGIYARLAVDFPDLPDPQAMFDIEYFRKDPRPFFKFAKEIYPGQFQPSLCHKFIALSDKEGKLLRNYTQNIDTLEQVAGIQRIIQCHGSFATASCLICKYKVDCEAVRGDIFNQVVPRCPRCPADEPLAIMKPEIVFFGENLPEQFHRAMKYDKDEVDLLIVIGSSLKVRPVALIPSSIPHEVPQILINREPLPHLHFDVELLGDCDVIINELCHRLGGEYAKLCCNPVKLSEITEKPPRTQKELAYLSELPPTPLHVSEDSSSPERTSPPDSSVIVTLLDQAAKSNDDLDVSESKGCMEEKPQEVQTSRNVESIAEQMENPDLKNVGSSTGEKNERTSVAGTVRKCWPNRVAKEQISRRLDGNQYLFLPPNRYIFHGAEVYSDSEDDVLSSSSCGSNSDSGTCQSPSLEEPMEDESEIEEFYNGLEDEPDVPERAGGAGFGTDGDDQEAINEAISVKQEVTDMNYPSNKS

target: NAD-dependent deacetylase Sirtuin 1 (human, UniProt Q96EB6); test: primary screen, delta tm; set-up: single well (n = 1, as 'the same TSA'); conditions: 10 µM

Compound	TSA(with NAD+) / Primary screening (TSA) / delta Tm (K)
O=C(Oc1ccc2oc3ccccc3c2c1)C1CC1	-0.32
O=C(CCl)c1c(-c2ccccc2)[nH]c2ccccc12	-0.03
COC(=O)c1cc(Br)ccc1NC(=O)c1cccc(S(=O)(=O)N(C)c2ccc(C)cc2)c1	-0.04
COc1cccc(-c2nc(CSc3nnc(CN4CCCCC4)n3-c3ccc(F)cc3)cs2)c1	-0.04
COc1cccc(C(=O)C2=C(O)C(=O)N(CCCN3CCOCC3)C2c2ccccc2)c1 (stereo not drawn)	-0.04
CC(=O)N(c1nn(CN2CCN(c3ccc(C(N)=O)cn3)CC2)c(=S)s1)C1CC1	-0.33
Cc1ccc(-c2cc(C(=O)Nc3ccc(C(N)=O)cc3)c3ccccc3n2)c(C)c1	-0.06
O=C1CCc2c(OCc3cc(=O)n4ccccc4n3)cccc21	-0.22
COc1cc(CNc2ccc3nnnn3n2)cc(OC)c1OC	-0.03
CC(C#N)(NC(=O)CNc1cccnc1-c1ccccc1)C1CC1 (stereo not drawn)	-0.08
O=C1CC(N2CCN(c3cnccn3)CC2)C(=O)N1CCc1ccccc1 (stereo not drawn)	0.06
COc1ccc(C(=O)NC2CCCC2(C)CO)cc1-c1ccccn1 (stereo not drawn)	-0.23
Cc1cc(C(=O)COC(=O)C23CC4CC(CC(O)(C4)C2)C3)c(C)n1-c1c(C)n(C)n(-c2ccccc2)c1=O	-0.23
CCc1cc2c(N3CCCN(CC(N)=O)CC3)ncnc2s1	-0.02
Cc1ccc(CN(C(=O)NCc2ccco2)C2CCc3ccccc32)cc1 (stereo not drawn)	-0.13
O=C(O)C1CC(=O)N(c2ccc(S(=O)(=O)Nc3ccc4c(c3)CCC4)cc2)C1 (stereo not drawn)	-0.03
Cc1ccccc1CSc1nc2ccsc2c(=O)n1C	-0.13
CCC(NC)C(=O)O (stereo not drawn)	-0.11
Cc1ccc(-c2sc(-c3ccccc3)nc2CC(=O)NNC(=O)C2COc3ccccc3O2)cc1 (stereo not drawn)	0.27
O=C(CCc1nc2ccccc2o1)Nc1ccc(N2CCN(Cc3ccccc3)CC2)cc1	-0.11

Compound	TSA(with NAD+) / Primary screening (TSA) / delta Tm (K)
CCC(CC)NCCN	-0.09
Cc1noc(C)c1C(=O)OCC(=O)Nc1ccc(C(N)=O)cc1	-0.01
CN(C)C(CNC(=O)c1ccc2c(c1)OCC(=O)N2)c1ccco1 (stereo not drawn)	0.15
COC(=O)c1ccc2[nH]c(CN)nc2c1	-0.05
CSc1ccc(NC(=O)C2CC(=O)Nc3cc(F)ccc32)cc1 (stereo not drawn)	-0.16
COCC(N)CO (stereo not drawn)	-0.09
Cc1ccccc1C(=O)N1CCC(C(=O)NCCc2nc3ccccc3[nH]2)CC1	-0.01
COc1ccccc1NC(=O)COc1ccc(C(=O)OCC(=O)NCCC2=CCCCC2)cc1OC	-0.01
O=C(Cn1cnc2sccc2c1=O)c1ccc2c(c1)Cc1ccccc1-2	0.05
Cc1c(CC(=O)O)c(=O)[nH]c2c1c(=O)[nH]n2C	-0.34
O=C1/C(=C/c2cccc(O)c2)Oc2cc(O)ccc21	-0.14
CCN(CC(=O)Nc1cc(C(N)=O)cc(C(N)=O)c1)Cc1cccc(F)c1	0.07
COc1cccc(C(=O)C2=C(O)C(=O)N(CCCN3CCOCC3)C2c2cccnc2)c1 (stereo not drawn)	-0.01
CC(C)c1cc(=O)oc2cc(OCc3ccc(C(N)=O)cc3)ccc12	0.03
CN(C)c1c(Cl)cccc1NC(=O)c1ccc(Cl)nc1Cl	-0.04
CC(OC(=O)COc1ccc2c(c1)CCC2)C(=O)Nc1ccc(C(N)=O)cc1 (stereo not drawn)	-0.12
CN(Cc1ccc(O)cc1)C(=O)C1c2ccccc2Oc2ccccc21	-0.18
O=C(O)c1ccc(OCc2cccs2)cc1	0.01
c1nc(N2CCSCC2)c2[nH]cnc2n1	-0.03
CN(C)CCCOC1CCN(c2ncnc3ccc(S(C)(=O)=O)cc23)CC1	-0.05

Three compounds picked at random from those above, as already listed:
Compound	TSA(with NAD+) / Primary screening (TSA) / delta Tm (K)
O=C1/C(=C/c2cccc(O)c2)Oc2cc(O)ccc21	-0.14
COc1ccccc1NC(=O)COc1ccc(C(=O)OCC(=O)NCCC2=CCCCC2)cc1OC	-0.01
Cc1noc(C)c1C(=O)OCC(=O)Nc1ccc(C(N)=O)cc1	-0.01

(listing goes on)

Compound	TSA(with NAD+) / Primary screening (TSA) / delta Tm (K)
COC(=O)NC(CC(C)C)C(=O)N(C)Cc1nc2ccccc2[nH]1 (stereo not drawn)	-0.11
Cn1ccc(NC(=O)C2CC(=O)N(c3ccc4c(c3)OCO4)C2)n1 (stereo not drawn)	-0.13
COc1ccc(CN2C(=O)/C(=C/NNC(=O)CC34CC5CC(CC(C5)C3)C4)c3ccccc3C2=O)cc1	0.06
O=C(Cc1ccc(-c2ccccc2)cc1)Nc1cccc(S(=O)(=O)N2CCOCC2)c1	0.11
N#Cc1c(NC(=O)c2cnc3ccccc3n2)sc2c1CCCCC2	-0.11
Cc1ccc(N(C)S(=O)(=O)c2cccc(C(=O)OCc3nnsc3Cl)c2)cc1	-0.21
COC1CCCC1NC(=O)Cc1sc(S)nc1C (stereo not drawn)	-0.26
Cc1nc(/C=C/C(=O)NC(C)C(=O)NCc2ccco2)cs1 (stereo not drawn)	-0.06
CC(N)C(N)=O (stereo not drawn)	-0.19
CCN(C(=O)CSc1nc(N)nc(N)n1)C1=CCCC1	0.15
CC(c1ccc(-n2cnc3ccccc32)cc1)N(C)C(=S)Nc1ccccc1 (stereo not drawn)	0.01
CC(OC(=O)C1=C(Nc2ccccc2)OCC1=O)c1ccccc1Cl (stereo not drawn)	-0.08
CON(C)C(=O)Cn1c2ccccc2c(=O)c2ccccc21	0.09
CCCOc1cccc(C2C(C(=O)/C=C/c3ccco3)=C(O)C(=O)N2CCCN2CCOCC2)c1 (stereo not drawn)	0.06
CCOC(=O)c1sc2nc(C)nc(N3CCN(S(=O)(=O)c4cccs4)CC3)c2c1C	0.05
Cc1ccc(N(C)S(=O)(=O)c2cccc(C(=O)OCc3ccc(C(C)(C)C)cc3)c2)cc1	0.16
CC(C)(C)c1ccc(COc2ccc3c4c(c(=O)oc3c2)CCC4)cc1	-0.23
Cc1[nH]c2ccccc2c1C(=O)C(C)N1CCC(C(N)=O)CC1 (stereo not drawn)	-0.04
O=C(C1=C(O)C(=O)N(CCCN2CCOCC2)C1c1ccc(Cl)c(Cl)c1)c1ccco1 (stereo not drawn)	0.01
CC(NS(C)(=O)=O)C(=O)O (stereo not drawn)	-0.14
